## Library screening results

Sequences of proteins named here, by UniProt entry; tags and fusion partners are left off.
UniProt E9BF75, entry or part of it: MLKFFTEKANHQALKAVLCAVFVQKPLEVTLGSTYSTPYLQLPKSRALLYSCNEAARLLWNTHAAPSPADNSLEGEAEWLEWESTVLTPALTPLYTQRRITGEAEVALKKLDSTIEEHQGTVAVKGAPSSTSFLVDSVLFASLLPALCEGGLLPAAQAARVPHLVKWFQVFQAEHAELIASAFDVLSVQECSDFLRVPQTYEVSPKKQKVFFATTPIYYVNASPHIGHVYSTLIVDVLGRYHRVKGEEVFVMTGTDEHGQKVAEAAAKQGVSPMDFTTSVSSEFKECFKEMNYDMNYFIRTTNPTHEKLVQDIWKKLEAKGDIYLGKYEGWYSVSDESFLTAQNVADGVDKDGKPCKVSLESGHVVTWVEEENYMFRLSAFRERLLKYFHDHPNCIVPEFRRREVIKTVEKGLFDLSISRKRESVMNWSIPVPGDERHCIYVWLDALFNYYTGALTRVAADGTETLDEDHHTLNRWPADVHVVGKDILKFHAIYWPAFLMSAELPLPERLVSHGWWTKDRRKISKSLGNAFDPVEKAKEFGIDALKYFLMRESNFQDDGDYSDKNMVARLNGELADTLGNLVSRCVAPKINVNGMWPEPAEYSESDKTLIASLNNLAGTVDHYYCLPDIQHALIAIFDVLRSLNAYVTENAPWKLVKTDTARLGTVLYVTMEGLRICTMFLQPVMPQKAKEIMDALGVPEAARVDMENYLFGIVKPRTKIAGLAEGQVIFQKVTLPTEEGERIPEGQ

Mtb heat-shock: 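Assay on Mycobacterium tuberculosis, filed only as a heat shock assay from Cornell; the read-out is not stated. The concentration is filed as 10 mM, unlikely as a test dose, so the dose is not known. Higher reads as stronger inhibition (inferred: compounds with an IC50 in retests scored well above the rest). About 69,000 compounds were tested under these conditions; 1.4% (about 930) showed 50% or more at least once.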
Mtb growth Cornell: 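Whole-cell assay for inhibitors of Mycobacterium tuberculosis growth, labelled Cornell in the record; the read-out is not stated. The concentration is filed as 10 mM, unlikely as a test dose, so the dose is not known. The record gives no direction; compounds strong in two other growth screens of this library score well above the rest, so higher reads as stronger inhibition. About 53,000 compounds were tested under these conditions; 1.7% (about 900) showed 50% or more at least once.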
LdMetRS: 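Methionyl-tRNA synthetase (putative), Leishmania donovani (UniProt E9BF75). Primary screen of methionyl-tRNA synthetase; the read-out is not stated. The test concentration is not given. Values are per cent inhibition. Of about 68,000 compounds tested this way, about 24 (0.035%) reached 50% or more in at least one test.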

All values are in %. The record does not define 0% and 100%; most values in the screen are far below 50% and negative numbers occur (in some assays of this library far below -100). The compounds are a random part of those screened. A dash means the value is not listed here; it may have been measured.

structure | Mtb heat-shock | Mtb growth Cornell | LdMetRS
[H][C@]12CC[C@]([H])(CN(Cc3[nH]cnc3C)C1)N(C(=O)CCNS(C)(=O)=O)C2 | -11.36 | -8.061 | -
Cc1nn(C)c(C)c1OCC(=O)NCC(O)c1ccco1 (configuration not stated) | -20.44 | - | 5.861
Cc1nn(C2CCS(=O)(=O)C2)c(C)c1CC(=O)NCc1ccccc1Cl (configuration not stated) | 7.214 | 46.89 | 15.59
O=C(C1CCCO1)N1CCC(O)(Cn2ccc3ccncc32)CC1 (configuration not stated) | -5.421 | -34.1 | 7.767
Cc1nn(C)c2cnn(Cc3ccc(C(=O)N4CCCCC4)o3)c12 | 7.877 | 23.52 | 8.877
NCCc1nc(N[C@@H](CO)c2ccccc2)c2ccccc2n1 | -27.97 | 24.62 | 19.16
Cc1ccc(CNC2CCN(CCc3ccncc3)CC2)s1 | 10.08 | 16.43 | 17.14
CN(Cc1n[nH]c2c1CCC2)C(=O)CCc1cc2n(n1)CCCNC2 | -7.293 | 19.14 | 9.148
CCc1nc(C)c(-c2nccn2CC2CCN(C3CCCC3)CC2)[nH]1 | -12.21 | -0.9376 | 5.882
CCc1cnc(N2CC[C@H]3[C@H]2CC(=O)N3c2cccnc2)nc1 | - | - | 12.59
CCCn1ccnc1SCC(=O)NC(Cc1ccccc1)C(C)=O (configuration not stated) | 6.159 | -6.315 | 6.87
Cc1noc(-c2ccc(N3CCN(Cc4nccn4C)CC3)nc2)n1 | -0.9571 | 15.97 | 4.556
COc1ccc(N2CCC(NC(=O)c3ccc(C#N)cc3)CC2)cc1 | 12.82 | -21.82 | 21.59
O=C1c2cccnc2OC(CN2CCOCC2)CN1C1CCC1 (configuration not stated) | -3.003 | 6.036 | 10
COc1cc(C2(C(=O)NC3CCN(CC4CC4)CC3)CC2)ccc1C | 29.06 | -41.47 | 14.49
CSc1cccc(CN(C)C(=O)c2ccc(C3CCCNC3)cc2)c1 (configuration not stated) | 25.96 | -7.644 | 15.86
CC(C)CC(C)N(C)C(=O)CCn1cccn1 (configuration not stated) | 17.65 | -11.52 | 3.333
CCCN(CCc1ccccn1)C(=O)CCc1cnn(C)c1 | -51.07 | 0.5205 | 8.05
CCC[C@@H]1CN(Cc2cc(C#N)n(C)c2C)C[C@H]1NS(C)(=O)=O | -15.25 | 8.498 | 3.107
C1CN(c2nc(C3CC3)no2)CCN(C2CCOCC2)C1 | 15.48 | 5.845 | 11.59
N[C@@H]1CC[C@@H](Nc2nccc(CCC(F)(F)F)n2)C1 | -13.3 | 1.976 | 12.94
COc1ccc2c(c1)C(=O)CC1(CCN(Cc3ccc(F)cc3)CC1)O2 | -11.26 | -11.17 | 0.8333
[H][C@@]12CN(C(=O)C3CCOCC3)C[C@]1([H])OCCN2CCN1CCCC1 | -3.36 | 28.05 | -
CCc1ncc2c(n1)CN(Cc1nnc(C(C)C)o1)CC2 | -31.85 | 15.72 | 16.17
O=S(=O)(NCCC(O)c1ccoc1)c1ccc(Cl)s1 (configuration not stated) | 0.3586 | 13.67 | 14.93
O=C(CC1CC1)N1CCC2(CC1)CN(c1cccnc1)C(=O)CO2 | - | - | 11.89
OC1(CN2CCCCC2)CCN(c2ccc(C(F)(F)F)cn2)C1 (configuration not stated) | -13.53 | - | 9.138
CCn1ccnc1CN1CCN(CCOc2ccccc2C#N)CC1 | 12.7 | -12.01 | 16.57
CC(C)(C)c1nc(CN2CCCC2Cn2cncn2)no1 (configuration not stated) | -4.14 | -9.387 | 18.52
Cc1nnc(NCc2cccc(OCc3ccccn3)c2)c(C#N)c1C | -19.97 | 0.07945 | 4.607
CCOc1cccc2c1OCC(C(=O)NS(=O)(=O)c1ccc(Cl)s1)=C2 | -8.246 | 9.699 | 7.977
COc1ccc(CN2CCO[C@H]3CN(C4CCC4)CC[C@H]3C2=O)cc1 | - | - | 6.643
[H][C@@]12CS(=O)(=O)C[C@]1([H])N(Cc1ncccc1C)CCN2CC(=O)N(C)C | -4.594 | 38.72 | -
CC(=O)N(C)Cc1ncn2c1CN(C(=O)C1CCCO1)CCC2 (configuration not stated) | 23.92 | -13.06 | 13.49
[H][C@@]12CCN(C(=O)c3nnc4n3CCCCC4)C[C@@]([H])(CC1)N2C | -6.526 | 23.88 | -
[H][C@@]12CCN(C(=O)c3c(C)noc3C)C[C@@]1([H])O[C@H](c1nccs1)C2 | -0.1654 | -18.44 | -
Cc1ncc(CN(C)CC(O)c2ccc(OC(F)(F)F)cc2)s1 (configuration not stated) | 3.495 | 32.29 | 11.08
CN(CCO)CC1COCCN1C(=O)C1(c2cccs2)CCCC1 (configuration not stated) | - | - | 8.696
COCCN1CCCC(c2nccnc2Nc2nc(C)cs2)C1 (configuration not stated) | -8.92 | - | 9.176
Cc1cc(CN2CCN(C(=O)Cc3ccccc3F)CC2)on1 | -5.608 | - | 8.629
c1cncc(COCC2CN(Cc3cccnc3)Cc3ccnn3C2)c1 (configuration not stated) | - | - | 8.591
COCC(=O)N1CCC2(CCC2N(C)Cc2ccco2)CC1 (configuration not stated) | - | - | 6.667
O=C(Nc1cnccn1)[C@H]1CC[C@@H]2[C@@H](CCN2Cc2ccccn2)O1 | - | - | 17.79
Cc1cc(CS(=O)(=O)NC2CCCc3ccccc32)on1 (configuration not stated) | 13.18 | -26.62 | 15.86
O=C1N(Cc2ccc(Cl)cc2)CCC12CCCNC2 (configuration not stated) | - | - | 8.964
COc1ccc(CNc2n[nH]c(C)n2)cc1 | 13.15 | 6.862 | 18.32
CN(C)C(=O)c1n[nH]c2c1CN(CC1CCCCC1)C2.O=C(O)C(F)(F)F.O=C(O)C(F)(F)F | 3.752 | 11.45 | -
CN(Cc1cccnc1)C[C@@H]1OC[C@H]2CN(Cc3ccco3)CC[C@H]21 | - | - | 12.03
O=C(Cn1cnnn1)NCC1(O)CCCc2ccccc21 (configuration not stated) | 4.4 | 5.508 | 18.51
CCC(C(=O)NC(C)(C)C)n1ccc2ncccc2c1=O (configuration not stated) | 17.87 | 13.41 | 12.24
Cc1nc(C)n(C2CCCN(C(=O)c3ccc4nccn4c3)C2)n1 (configuration not stated) | -41.83 | - | 13.02

Repeated from the top, 4 entries:

| structure | Mtb heat-shock | Mtb growth Cornell | LdMetRS |
|---|---|---|---|
| `[H][C@]12CC[C@]([H])(CN(Cc3[nH]cnc3C)C1)N(C(=O)CCNS(C)(=O)=O)C2` | -11.36 | -8.061 | - |
| `Cc1nn(C)c(C)c1OCC(=O)NCC(O)c1ccco1` (configuration not stated) | -20.44 | - | 5.861 |
| `Cc1nn(C2CCS(=O)(=O)C2)c(C)c1CC(=O)NCc1ccccc1Cl` (configuration not stated) | 7.214 | 46.89 | 15.59 |
| `O=C(C1CCCO1)N1CCC(O)(Cn2ccc3ccncc32)CC1` (configuration not stated) | -5.421 | -34.1 | 7.767 |

Measurements from “University of Dundee, Small-Polar-MMV Screening Library” (2021), ChEMBL document CHEMBL3988442.